Sequences of proteins named here, by UniProt entry; tags and fusion partners are left off. A change or cut given only in a name is not applied to a line headed by its entry.
UniProt Q14118: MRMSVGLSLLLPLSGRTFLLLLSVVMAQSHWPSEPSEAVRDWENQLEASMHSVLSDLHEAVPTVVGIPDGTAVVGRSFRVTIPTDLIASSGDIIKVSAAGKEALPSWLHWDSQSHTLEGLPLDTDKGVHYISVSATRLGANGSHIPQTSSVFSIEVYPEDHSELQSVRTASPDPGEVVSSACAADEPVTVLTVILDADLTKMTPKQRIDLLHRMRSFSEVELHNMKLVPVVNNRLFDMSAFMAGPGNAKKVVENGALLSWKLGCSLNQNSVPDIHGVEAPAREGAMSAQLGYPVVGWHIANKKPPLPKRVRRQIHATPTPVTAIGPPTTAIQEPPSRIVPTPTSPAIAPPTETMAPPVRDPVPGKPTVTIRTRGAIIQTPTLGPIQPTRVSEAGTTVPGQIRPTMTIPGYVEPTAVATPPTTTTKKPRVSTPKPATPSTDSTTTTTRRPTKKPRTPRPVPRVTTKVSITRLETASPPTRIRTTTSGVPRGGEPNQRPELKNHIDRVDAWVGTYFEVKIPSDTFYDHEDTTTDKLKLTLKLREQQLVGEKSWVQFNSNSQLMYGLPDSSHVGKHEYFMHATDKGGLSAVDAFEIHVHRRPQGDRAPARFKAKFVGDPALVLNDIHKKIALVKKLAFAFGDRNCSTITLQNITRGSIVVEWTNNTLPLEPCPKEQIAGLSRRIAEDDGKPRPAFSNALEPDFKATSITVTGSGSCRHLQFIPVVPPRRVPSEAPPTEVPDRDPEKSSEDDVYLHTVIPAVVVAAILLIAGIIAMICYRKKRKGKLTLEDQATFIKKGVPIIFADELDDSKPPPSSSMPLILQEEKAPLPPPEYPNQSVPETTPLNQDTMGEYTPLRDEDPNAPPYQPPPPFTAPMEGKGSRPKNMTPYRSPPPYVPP
UniProt Q62165: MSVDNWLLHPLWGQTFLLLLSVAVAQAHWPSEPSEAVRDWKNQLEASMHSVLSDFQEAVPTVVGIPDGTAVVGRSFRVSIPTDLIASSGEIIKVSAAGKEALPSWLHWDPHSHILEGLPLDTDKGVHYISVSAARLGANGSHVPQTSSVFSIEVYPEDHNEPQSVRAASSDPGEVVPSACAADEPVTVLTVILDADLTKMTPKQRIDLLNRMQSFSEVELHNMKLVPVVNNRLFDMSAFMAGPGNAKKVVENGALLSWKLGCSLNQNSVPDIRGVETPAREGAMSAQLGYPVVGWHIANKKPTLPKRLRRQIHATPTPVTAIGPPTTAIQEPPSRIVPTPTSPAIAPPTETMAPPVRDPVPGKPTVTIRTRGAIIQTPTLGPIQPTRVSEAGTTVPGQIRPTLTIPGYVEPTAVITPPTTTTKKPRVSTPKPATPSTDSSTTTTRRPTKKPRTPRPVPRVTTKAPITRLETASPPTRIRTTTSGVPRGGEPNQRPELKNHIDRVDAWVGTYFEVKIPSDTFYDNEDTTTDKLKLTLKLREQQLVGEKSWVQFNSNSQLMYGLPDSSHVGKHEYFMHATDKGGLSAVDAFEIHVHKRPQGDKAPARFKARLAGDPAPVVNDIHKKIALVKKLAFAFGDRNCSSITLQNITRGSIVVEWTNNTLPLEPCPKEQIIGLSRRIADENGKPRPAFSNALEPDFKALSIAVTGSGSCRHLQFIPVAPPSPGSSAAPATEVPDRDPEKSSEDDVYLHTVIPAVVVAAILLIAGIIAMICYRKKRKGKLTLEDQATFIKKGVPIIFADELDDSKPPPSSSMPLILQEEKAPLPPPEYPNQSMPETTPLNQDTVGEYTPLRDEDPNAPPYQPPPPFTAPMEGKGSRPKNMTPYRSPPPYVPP

According to US20180237511A1 (Sanofi, published 2018):

B1: anti-beta-DG antibody derived from hybridoma clone AS19 (antibody, V domains shown)
VH: QVQLQQSGPELVKPGASVKMSCKASGFTFTDSVISWVKQRTGQGLEWIGEIYPGSGSIYYNEKFKGKATLTADKSSNTAYMQLRSLTSEDSAVYFCAMRRSYWGQGTLVTVSA
VL: DVLMTQTPLSLPVSLGDQASISCRSSQSIVHSNGNTYLEWYLQKPGQSPKLLIYKVSNRFSGVPDRFSGSGSGTDFTLKISRVEAEDLGVYYCFQGSHVPLTFGAGTKLELK
notes: Hybridoma monoclonal antibody (detected with anti-mouse IgG)
B2: bispecific antibody C5C6: anti-beta-DG(AS30) x anti-laminin-2(C3), CODV with 10-10-0-0 linker (bispecific antibody, IgG1, not shown: a dimerising Fc or GST)
heavy: QIQLQQSGPELVKPGASVKMSCEASGFTFTDSVITWVKQRPGQGLEWIGEIYPGSGNFYYNEKFKGKATLTADKSSNTAYMQLRSLTSEDSAVYFCAMRRSSWGQGTLVTVSADVMLVESGGDLVKPGGSLKLSCAASGFTFSSYTMSWVRQTPEKRLEWVASISSGGGNTYYPDSVKGRFTISRDNAKNNLYLQMSSLRSEDTALYYCARFDYGSSLDSWGQGTTLTVSS
light: DIVLTQSPATLSVTPGDSVSLSCRASQSISNNLHWYQQKSHESPRLLIKYASQSISGIPSRFSGSGSGTDFTLSINSVETEDFGMYFCQQSKNWPRTFGGGTKLEIKGGSGSSGSGGDVLMTQTPLSLPVSLGDQASISCRSSQTIVHSNSKTYLEWYLQKPGQSPKLLIYKVSNRFSGVPDRFSGSGSGTDFTLKISRVEAEDLGVYYCFQGSHVPLTFGAGTKLELKGGSGSSGSGG
B3: bispecific antibody T1T2: anti-beta-DG(AS19) x anti-laminin-2(C3), TBTI with (GGGGS)2 linker (bispecific antibody)
heavy: QVQLQQSGPELVKPGASVKMSCKASGFTFTDSVISWVKQRTGQGLEWIGEIYPGSGSIYYNEKFKGKATLTADKSSNTAYMQLRSLTSEDSAVYFCAMRRSYWGQGTLVTVSAGGGGSGGGGSDVMLVESGGDLVKPGGSLKLSCAASGFTFSSYTMSWVRQTPEKRLEWVASISSGGGNTYYPDSVKGRFTISRDNAKNNLYLQMSSLRSEDTALYYCARFDYGSSLDSWGQGTTLTVSS
light: DVLMTQTPLSLPVSLGDQASISCRSSQSIVHSNGNTYLEWYLQKPGQSPKLLIYKVSNRFSGVPDRFSGSGSGTDFTLKISRVEAEDLGVYYCFQGSHVPLTFGAGTKLELKGGGGSGGGGSDIVLTQSPATLSVTPGDSVSLSCRASQSISNNLHWYQQKSHESPRLLIKYASQSISGIPSRFSGSGSGTDFTLSINSVETEDFGMYFCQQSKNWPRTFGGGTKLEIK
notes: also called AS19xC3 in TBTI; biAb (AS19xC3); not shown: IgG1 heavy chain constant region: murine IgG1 (GenBank AAA75163.1) or human IgG1 (Genbank Q569F4); murine IgG backbone i; kappa light chain constant region: murine kappa chain (Genbank BAB33404) or human kappa chain (Genbank Q502W4)
B4: bispecific antibody T5T6: anti-beta-DG(AS30) x anti-laminin-2(C3), TBTI with (GGGGS)2 linker (bispecific antibody, not shown: a dimerising Fc or GST)
heavy: B3 heavy with V2I, K23E, S35T, T41P, S57N, I58F, Y102S
light: B3 light with S28T, G34S, N35K
B5: anti-laminin-2 antibody derived from hybridoma clone C21 (antibody, V domains shown)
VH: EVMLVESGGGLVKPGGSLKLSCAASGFTFSSYTMSWVRQTPEKRLEWVATISSGGDNTYYPDSVKGRFTISRDNAKNNLYLQMSSLRSEDTALYYCARFDYGSSLDCWGQGTTLTVSS
VL: DIVLTQSPATLSVTPGDSVSLSCRASQSISNYLHWYQQKSHESPRLLIKYASQSISGIPSRFSGSGSGTDFTLSINSVETEDFGMYFCQQSKSWPRTFGGGTELEIK
notes: Hybridoma monoclonal antibody (detected with anti-mouse IgG); also called anti-laminin-2(C21)
B6: anti-laminin-2 antibody derived from hybridoma clone C3 (antibody, V domains shown)
VH: B5 VH with E1D, G10D, T50S, D56G, C107S
VL: B5 VL with Y32N, S93N, E103K
notes: Hybridoma monoclonal antibody (detected with anti-mouse IgG); also called C03; anti-laminin-2(C3)
B7: anti-beta-DG antibody derived from phage display clone B04 (antibody, V domains shown)
VH: QVQLQQSGGGLVQPGGSLRLSCAASGFTFSSYAMSWVRQAPGKGLEWVSAISGSGGSTYYADSVKGRFTVSRDNSKNTLYLQMNSLRAEDTAVYYCARLGYCSSTSCYLSAFDIWGQGTMVTVSS
VL: EIVLTQSPSTLSASVGDRVTITCRASQSISSWLAWYQQKPGKAPKLLIYDASSLESGVPSRFSGSGSGTEFTLTISSLQPDDFATYYCQQYNSYPLTFGGGTKVEIK
notes: Phage display clone

What was measured:
[1] = molecular target: murine beta-dystroglycan extracellular domain (mbeta-DG ECD), HPC4 tagged (mouse); assay: dot blot on nitrocellulose
[2] = molecular target: beta-DG in unfixed frozen human muscle tissue sections (human) (UniProt Q14118); assay: immunofluorescence on unfixed frozen muscle tissue sections
[3] = molecular target: beta-DG in unfixed frozen mouse muscle tissue sections (mouse) (UniProt Q62165); assay: as above
[4] = molecular target: murine beta-dystroglycan extracellular domain (mbeta-DG ECD), HPC4 tagged (mouse); assay: sequential Biacore; antibody on CM5 chip, LG-4/5 then beta-DG in flow
[5] = molecular target: murine beta-dystroglycan extracellular domain (mbeta-DG ECD), HPC4 tagged (mouse); assay: dot blot: protein dotted on nitrocellulose, probed with the antibody
[6] = molecular target: murine beta-dystroglycan extracellular domain (mbeta-DG ECD), HPC4 tagged (mouse); assay: sequential SPR (Biacore): antibody immobilised on a CM5 chip, murine LG-4/5 and then murine beta-DG flowed over
[7] = molecular target: laminin-2 (LG-4/5) in unfixed frozen mouse muscle tissue sections (mouse); assay: immunofluorescence on unfixed frozen muscle tissue sections
[8] = molecular target: murine beta-dystroglycan extracellular domain (mbeta-DG ECD), HPC4 tagged (mouse); assay: phage ELISA; phage monoclonal antibody on coated antigen

Row | Binder | binding [4] | binding [6] | other results
1 | B1 | binds | binds | binding [1]: binds; binding [2]: binds; binding [3]: binds; binding [5]: binds
2 | B2 | binds | binds | 
3 | B3 | binds | binds | 
4 | B4 | binds | binds | 
5 | B5 |  |  | binding [7]: binds
6 | B6 |  |  | binding [7]: binds
7 | B7 |  |  | binding [8]: binds

Changes are numbered by the printed parent chain. Results are given in words; binding and its absence hold for the method and conditions named. A result given as binding can be weak or reduced; the word gives no strength.
